According to patent US20080167387A1, “Microglia Facilitated Amyloidogenesis Assay” (Pfizer Inc., priority 2005, published 2008):
For at least one compound, name, drawing or mass did not settle the structure.

System: amyloid formation from Aβ(1-42) peptides mediated by rat primary microglia
Assay: Microglial-facilitated amyloidogenesis (MFA) assay, thioflavin S staining
Type: cell-based
Conditions: 32 nM-10 μM, one hour prior to 10 μM Aβ(1-42), 37° C., 18 hours
Description: Primary rat brain microglia prepared as described in Example 1, were plated into Falcon black/clear 96 well plates at a concentration of 2×10^5 cells per well. The microglia were allowed to attach to cell walls after incubation at 37° C. for several hours to overnight. Fresh DMEM, with 10% fetal bovine serum, 0.1% penicillin/streptomycin and L-glutamine at 200 mM was used to replace the old media, while cells were gently washed to remove debris and dead cells.
[…] (The pre-treatment step is optional.) After pre-treatment, the candidate compound and Aβ (1-42) peptides were added to the pre-treated cells. The final concentration of Aβ (1-42) peptides was 10 μM. […] The final volume for each well was about 100 μl/well.
Aβ (1-42) peptides and Aβ (1-40) peptides, obtained from American Peptides of Sunnyvale, Calif., were stored at −20° C. Before use, Aβ (1-42) peptides were allowed to warm to room temperature for 15 minutes. To dissolve the Aβ (1-42) peptides, 200 μl of sterile water was added to the peptides. Each sample of peptides was vortexed to dissolve the peptides. Each sample was then diluted with 19 mls of MSFM. The final concentration of Aβ (1-42) peptides was 10 μM. […]
Cells were washed twice, each time for 5 min, with 100 μl of 70% ethanol. […] Relative fluorescence intensity was measured.

## CS(=O)(=O)NC(=O)CCC/C=C\C[C@H]1C(=O)C[C@@H](O)[C@@H]1/C=C/[C@@H](O)COc1ccccc1 [sulprostone]
  amyloid formation mediated by microglia (thioflavin S staining): inhibit
Listed as Sulprostone
  amyloid formation mediated by microglia (thioflavin S staining): no clear effect
